# Screening data

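Malaria parasite (P. falciparum) lines kept in red blood cells; parasite DNA is measured by SYBR Green fluorescence after lysis, 72 h after compound addition. Each compound was titrated across a series from about 0.000037 to 29 µM. The number is the fitted AC50, the concentration giving a half-maximal change in signal; a lower value means higher potency, whether the curve shows a decrease or an increase. Calls follow the curve class and fit quality: every row here is inconclusive, covering signal-raising curves and weak, poorly fitted, partial or highest-dose-only inhibition curves.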

Values are in µM. Every entry below has the call inconclusive. These entries are mostly ones the record files as inconclusive; other results of the assay are not listed here. Potencies fitted to partial, single-point or poorly fitting curves are rough.

CCC(=O)c1ccc2c(c1)N(CCCN(C)C)c1ccccc1S2 [CP329] gave fitted potency 9.528 µM (inhibitor, partial curve, poor fit). For CCC(=O)c1ccc2c(c1)N(CCCN(C)C)c1ccccc1S2 [FAB9] the result was fitted potency 11.22 µM (inhibitor, single point). With CCC(=O)c1ccc2c(c1)N(CCCN(C)C)c1ccccc1S2 [DIV30] the assay gave fitted potency 9.528 µM (inhibitor, partial curve). With CCC(=O)c1ccc2c(c1)N(CCCN(C)C)c1ccccc1S2 [ATS95] the assay gave fitted potency 7.08 µM (inhibitor, partial curve). CCC(=O)c1ccc2c(c1)N(CCCN(C)C)c1ccccc1S2 [GB4] read fitted potency 7.569 µM (inhibitor, partial curve). CCC(=O)c1ccc2c(c1)N(CCCN(C)C)c1ccccc1S2 [TAB165] gave fitted potency 11.22 µM (inhibitor, partial curve, poor fit). CCC(=O)c1ccc2c(c1)N(CCCN(C)C)c1ccccc1S2 [PAD] gave fitted potency 5.623 µM (inhibitor, partial curve, poor fit). CCC(=O)c1ccc2c(c1)N(CCCN(C)C)c1ccccc1S2 [CP265] read fitted potency 10 µM (inhibitor, single point).

For CCC(=O)c1ccc2c(c1)N(CCCN(C)C)c1ccccc1S2 [P93_24] the result was fitted potency 6.31 µM (inhibitor, partial curve). CCC(=O)c1ccc2c(c1)N(CCCN(C)C)c1ccccc1S2 [CP291] gave fitted potency 8.492 µM (inhibitor, partial curve). With CCC(=O)c1ccc2c(c1)N(CCCN(C)C)c1ccccc1S2 [CP286] the assay gave fitted potency 11.22 µM (inhibitor, partial curve). CCC(=O)c1ccc2c(c1)N(CCCN(C)C)c1ccccc1S2 [CP217] gave fitted potency 8.912 µM (inhibitor, single point). Result for CCC(=O)c1ccc2c(c1)N(CCCN(C)C)c1ccccc1S2 [CP325] was fitted potency 3.793 µM (inhibitor, partial curve, poor fit). Result for CCC(=O)c1ccc2c(c1)N(CCCN(C)C)c1ccccc1S2 [CP269] was fitted potency 8.492 µM (inhibitor, partial curve, poor fit). CCC(=O)c1ccc2c(c1)N(CCCN(C)C)c1ccccc1S2 [CP247] read fitted potency 10 µM (inhibitor, single point). With CCC(=O)c1ccc2c(c1)N(CCCN(C)C)c1ccccc1S2 [AS120] the assay gave fitted potency 8.912 µM (inhibitor, partial curve).

Result for CCC(=O)c1ccc2c(c1)N(CCCN(C)C)c1ccccc1S2 [DFO2036] was fitted potency 17.78 µM (inhibitor, single point). CCC(=O)c1ccc2c(c1)N(CCCN(C)C)c1ccccc1S2 [CP305] gave fitted potency 8.492 µM (inhibitor, partial curve, poor fit). CCC(=O)c1ccc2c(c1)N(CCCN(C)C)c1ccccc1S2 [CP268] read fitted potency 4.776 µM (inhibitor, partial curve). CCC(=O)c1ccc2c(c1)N(CCCN(C)C)c1ccccc1S2 [CP194] read fitted potency 5.358 µM (inhibitor, partial curve). CCC(=O)c1ccc2c(c1)N(CCCN(C)C)c1ccccc1S2 [CP252] gave fitted potency 10 µM (inhibitor, single point). CCC(=O)c1ccc2c(c1)N(CCCN(C)C)c1ccccc1S2 [CP215] read fitted potency 15.1 µM (inhibitor, single point). CCC(=O)c1ccc2c(c1)N(CCCN(C)C)c1ccccc1S2 [CP335] read fitted potency 15.1 µM (inhibitor, single point). CCC(=O)c1ccc2c(c1)N(CCCN(C)C)c1ccccc1S2 [C2A] gave fitted potency 11.22 µM (inhibitor, single point).

With CCC(=O)c1ccc2c(c1)N(CCCN(C)C)c1ccccc1S2 [7G8] the assay gave fitted potency 12.59 µM (inhibitor, single point). CCC(=O)c1ccc2c(c1)N(CCCN(C)C)c1ccccc1S2 [CP237] read fitted potency 11.22 µM (inhibitor, partial curve).

3 of the entries, repeated:

| structure | tested on / at | fitted potency (µM) | remark |
|---|---|---|---|
| `CCC(=O)c1ccc2c(c1)N(CCCN(C)C)c1ccccc1S2` | CP329 | 9.528 | inhibitor, partial curve, poor fit |
| `CCC(=O)c1ccc2c(c1)N(CCCN(C)C)c1ccccc1S2` | CP286 | 11.22 | inhibitor, partial curve |
| `CCC(=O)c1ccc2c(c1)N(CCCN(C)C)c1ccccc1S2` | AS120 | 8.912 | inhibitor, partial curve |

Source: PubChem BioAssay AID504749 (NCATS, 2011).